Measurements published in article PMC6237804.

Protein sequences, listed by entry. Tags and fused reporters are not part of them. Residues count along the entry.
UniProt P0A7G6, 2-337, stated change not applied: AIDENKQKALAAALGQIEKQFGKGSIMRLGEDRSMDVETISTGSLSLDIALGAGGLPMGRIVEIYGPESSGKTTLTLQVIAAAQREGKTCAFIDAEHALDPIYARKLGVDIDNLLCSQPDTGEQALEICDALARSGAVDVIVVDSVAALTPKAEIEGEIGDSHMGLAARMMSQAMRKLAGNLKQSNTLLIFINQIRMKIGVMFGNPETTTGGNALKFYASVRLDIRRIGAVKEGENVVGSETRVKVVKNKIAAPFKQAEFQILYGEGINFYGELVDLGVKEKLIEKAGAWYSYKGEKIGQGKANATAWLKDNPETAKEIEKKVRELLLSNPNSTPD

Target: RecA-wtΔC (UniProt P0A7G6)
Assay: EMSA
Conditions: 4.5 uM (nt) ssDNA or 9.0 uM dsDNA, agarose gel, no fixation, 6-MI: 25 mM Tris-HCl pH 7.5, 10 mM MgCl2, recombinant protein, label: FAM, single-stranded DNA

Measured: binding result

AAATCAATCTAAAGTATATATGAGTAAACTTGGTCTGACAGTTACCAATGCTTAATCAGTGAGGCACCTATCTCAGCGATCTGTCTATTT [OL2 90-mer ssDNA]
binds: 1.3 mM ATP | 1.3 mM ATPgS | no nucleotide cofactor

For at least one entry, the source does not settle the construct or the ends of the probe. At least one verdict was read from the data and is not stated in words by the source.
